# Laboratory results: the supplement of paper PMC3334620
# The full ranking holds about 33,000 sequences; the median of “E-score (-0.5 to 0.5)” is about -0.015, and the highest 2% start at about 0.3. The list shows a part of the results.
# Molecular target: T1, Abf1 (UniProt P14164)
# T1 sequence: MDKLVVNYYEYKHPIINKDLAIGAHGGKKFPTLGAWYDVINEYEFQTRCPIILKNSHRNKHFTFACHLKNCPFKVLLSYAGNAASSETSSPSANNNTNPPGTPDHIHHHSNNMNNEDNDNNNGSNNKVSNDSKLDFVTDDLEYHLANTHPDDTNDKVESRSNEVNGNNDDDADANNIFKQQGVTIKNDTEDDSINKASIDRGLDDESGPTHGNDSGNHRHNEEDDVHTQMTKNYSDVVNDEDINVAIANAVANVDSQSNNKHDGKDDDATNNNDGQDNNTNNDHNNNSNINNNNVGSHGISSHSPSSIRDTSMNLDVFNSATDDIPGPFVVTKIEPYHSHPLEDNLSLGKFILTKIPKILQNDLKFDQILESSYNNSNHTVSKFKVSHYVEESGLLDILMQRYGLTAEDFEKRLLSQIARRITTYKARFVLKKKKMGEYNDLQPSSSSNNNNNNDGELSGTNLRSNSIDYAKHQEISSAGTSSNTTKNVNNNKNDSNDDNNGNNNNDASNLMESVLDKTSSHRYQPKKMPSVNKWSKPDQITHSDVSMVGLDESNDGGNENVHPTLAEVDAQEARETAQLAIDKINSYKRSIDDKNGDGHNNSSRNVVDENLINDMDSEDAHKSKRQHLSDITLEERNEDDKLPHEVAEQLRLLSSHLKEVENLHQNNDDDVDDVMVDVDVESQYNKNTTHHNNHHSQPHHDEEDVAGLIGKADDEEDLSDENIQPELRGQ
# Assay: PBM E-score (8-mer binding enrichment) (E-score (-0.5 to 0.5)); higher = stronger / more preferred TF binding
# Conditions: protein concentration: 200 nM; construct: GST-full length
# Summary of the method: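 GST-tagged yeast TFs (full-length or DNA-binding domain) were made by PURExpress in vitro transcription/translation and applied at about 100-200 nM to universal all-10-mer Agilent arrays. The arrays were made double-stranded by primer extension, on fresh or once-stripped slides. Bound protein was detected with fluorescent anti-GST, and scans were normalised with masliner. Each ungapped eight-base word, pooled with its reverse complement, received an E-score (modified Wilcoxon-Mann-Whitney statistic) from the Universal PBM Analysis Suite.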
row,Sequence,PBM E-score
1,AGCCACTA,-0.0236
2,CGGTCATC,0.107
3,AAAATGGG,-0.18
4,CACATTAC,0.033
5,AGCTCGGC,-0.0707
6,AGCTACTC,-0.159
7,GCTACATA,0.068
8,CCACGACC,0.0399
9,CACTATAG,0.158
10,GAGAAGGA,-0.18
11,ATATCCTA,0.0561
12,ACGTGCGG,0.135
13,CTCTTCTA,-0.157
14,GAATCTCA,-0.0291
15,CTCAGATC,0.0461
16,GAAGGTAA,0.0515
17,GGATTTAC,0.189
18,CCCCACGG,0.0587
19,ACGCCGTC,0.282
20,AAGAACTG,-0.114
21,ACTAATGC,-0.0123
22,ATACGCAC,0.183
23,ATCGTCCA,0.221
24,GGCGTCGA,0.0198
25,AGCCTGAT,-0.0304

row,Sequence,PBM E-score
1,CTCAGACA,-0.208
2,AATCATTG,0.0452
3,CCGACCTC,-0.137
4,TGTGGGAA,-0.13
5,CAGGCTCA,-0.112
6,GGTGATCA,0.305
7,AAGCTCCC,-0.286
8,GGTTATGA,0.0101
9,GCCCCGAC,-0.225
10,CGTACACC,-0.0081
11,GGCTAAGA,-0.0881
12,AACCAGTT,0.0799
13,AGCGCCGG,-0.136
14,ACGGAGTA,0.1
15,AGACATTG,-0.0332
16,TACTGAAA,0.0645
17,AGCCTCGG,-0.297
18,ACGCGCGT,0.137
19,AAAGGGCT,-0.253
20,AGATGTCA,0.205
21,ACGTACAC,0.0407
22,TATTATAA,0.121
23,CCACAGGA,-0.0541
24,AAGAGCCC,-0.0624
25,TACACCAA,-0.128

row,Sequence,PBM E-score
1,CCAAAACG,0.232
2,ACAGTTTC,0.0669
3,ATGTCGGC,0.0555
4,TACCAAGA,-0.123
5,CCCCAGCA,-0.104
6,GCAGTTGA,-0.0583
7,AACTGCCC,0.0127
8,TCGCAGAA,-0.114
9,AGGCCACT,-0.22
10,AATAGTCT,-0.0664
11,ATTCCCTA,0.0118
12,AAGCGCCA,-0.247
13,CCTTTTCA,-0.0525
14,CACCCGAC,0.00856
15,CTGGCGTC,-0.238
16,ACTTCAAT,0.0336
17,ATTGTTGC,-0.0414
18,AGTCCAAA,-0.153
19,AAAGCGCA,-0.169
20,CTAAAATA,0.161
21,AAATAATC,0.131
22,ACGCGTTC,-0.0896
23,TGGGCAAA,-0.166
24,CGACTCCG,-0.231
25,CCACGAAA,0.216

row,Sequence,PBM E-score
1,CCCTCCCG,-0.229
2,GAGCCATC,-0.0884
3,ACTCGGCC,-0.00517
4,AACTCCCG,-0.0344
5,TTACTCAA,0.112
6,CATGCCAA,-0.107
7,ATGAAAGA,0.0905
8,ATGCATAC,0.0289
9,CTTCCCCC,-0.428
10,CCGGACGC,-0.0656
11,ACAAAACA,0.00481
12,AGCCATAG,-0.0419
13,AGTGGTGA,0.131
14,GTTAGTAA,0.0844
15,AAGACTTG,0.0186
16,AGTTGCAG,-0.139
17,ATGTAGTG,0.17
18,CTCACAGA,-0.031
19,GTTATAAA,0.0225
20,ACTTGATA,0.227
21,CTGCGCCC,-0.16
22,CCTTTACC,-0.282
23,CGATTGCG,-0.219
24,AAGTAATG,-0.0501
25,AAGCGATA,0.256

# Another view of some results above:
row | Sequence | PBM E-score
8 | TCGCAGAA | -0.114
9 | AGGCCACT | -0.22
10 | AATAGTCT | -0.0664
11 | ATTCCCTA | 0.0118
12 | AAGCGCCA | -0.247
14 | CACCCGAC | 0.00856
15 | CTGGCGTC | -0.238
16 | ACTTCAAT | 0.0336
17 | ATTGTTGC | -0.0414
18 | AGTCCAAA | -0.153
19 | AAAGCGCA | -0.169
20 | CTAAAATA | 0.161
21 | AAATAATC | 0.131
22 | ACGCGTTC | -0.0896
23 | TGGGCAAA | -0.166
24 | CGACTCCG | -0.231
25 | CCACGAAA | 0.216
1 | CCCTCCCG | -0.229
2 | GAGCCATC | -0.0884
4 | AACTCCCG | -0.0344
5 | TTACTCAA | 0.112
6 | CATGCCAA | -0.107
7 | ATGAAAGA | 0.0905
8 | ATGCATAC | 0.0289
9 | CTTCCCCC | -0.428
10 | CCGGACGC | -0.0656
11 | ACAAAACA | 0.00481
12 | AGCCATAG | -0.0419
13 | AGTGGTGA | 0.131
14 | GTTAGTAA | 0.0844
15 | AAGACTTG | 0.0186
16 | AGTTGCAG | -0.139
17 | ATGTAGTG | 0.17
18 | CTCACAGA | -0.031
20 | ACTTGATA | 0.227
21 | CTGCGCCC | -0.16
22 | CCTTTACC | -0.282
23 | CGATTGCG | -0.219
24 | AAGTAATG | -0.0501
25 | AAGCGATA | 0.256

# The list goes on:

row,Sequence,PBM E-score
1,CGGACGGC,0.259
2,AATGCTAG,-0.155
3,AGTTCGCC,-0.0547
4,ATGTGGCA,-0.123
5,CAACTCTA,-0.28
6,CGGAGATC,-0.0599
7,CGCTACAA,0.00214
8,ACCTTATG,-0.0573
9,GTCAATAA,0.0223
10,TATGATGA,0.313
11,AGATCTAC,-0.0302
12,ATAGATGC,-0.223
13,CAGTCGGA,-0.147
14,AAGTTTTG,-0.177
15,CGAAACGA,0.172
16,GCGGGCGA,-0.0255
17,CTGAGTGC,-0.123
18,CTTGGTTA,0.0127
19,CTACTAAA,-0.0406
20,GACCCGTA,0.0251
21,CCGGGCCA,-0.27
22,ATAAATAC,0.278
23,GTAAAGCA,0.119
24,TCCTTCGA,0.0552
25,ATAAGGTA,-0.0483

row,Sequence,PBM E-score
1,GAAAGTTC,-0.101
2,GATCGAAA,0.0513
3,AAGAGTTC,-0.025
4,GAAGATTC,0.185
5,CTTTCGCC,0.0247
6,GAACACTC,-0.0718
7,ACAACGCT,-0.0795
8,AGTAGGTA,0.0649
9,CCGCCTAA,-0.106
10,GCTGCCGA,-0.135
11,GTACTCTA,-0.15
12,AGACAAGA,0.06
13,TAACACAA,-0.0978
14,CGGTAGAC,-0.18
15,AATTGCGA,-0.116
16,AACGTCCT,-0.0408
17,AATATCAA,0.0238
18,AGCTTGGA,-0.248
19,ACAGGTCC,-0.145
20,CTCGAGCC,-0.232
21,AAGAACGC,-0.0765
22,ATTGGTTG,-0.047
23,CTGTAATA,0.111
24,ATAAAAAT,0.185
25,CCCGGGGA,-0.243

row,Sequence,PBM E-score
1,AGATCTTC,0.0666
2,ATTGCTGA,0.13
3,GATAGAAC,0.0502
4,ATCCGGAC,-0.213
5,CCGGCCAG,-0.113
6,CCCCATTA,-0.234
7,ATTTACAC,-0.0414
8,GAATGTAC,0.113
9,ATTAGGAA,0.0922
10,AACGTTAA,0.181
11,AGCGGACT,-0.23
12,CGGCTAAC,0.107
13,GATTTCCC,0.0305
14,GGATCAAC,-0.0123
15,CAATGTAC,-0.0545
16,ATACTAGC,0.041
17,GATGACTA,0.169
18,ATAATATG,0.262
19,CCCCTGTC,-0.15
20,CCGTTTTC,0.00719
21,AACTCCCA,-0.164
22,ACACCTTG,-0.126
